According to patent publication US9434704B2, “Compositions and methods for the treatment of neurological degenerative disorders” (CELLIX BIO PRIVATE LIMITED, priority 2012, dated 2016):

Assay: Pharmacokinetics in plasma, brain and different segments of spinal cord in rat model
Conditions: single dose 8 mg/kg (riluzole equivalent)

absorption after I.P. administration: readily absorbed
Structure (SMILES): Nc1nc2ccc(OC(F)(F)F)cc2s1 [Riluzole, riluzole]
